In US7393852B2, “Piperazine derivatives and methods of use” (Amgen Inc., priority 2003, dated 2008):
Some entries share one result that the patent states for a list of compounds.

Assays:
[1] = target: T1, human bradykinin B1 receptor (Homo sapiens, UniProt P46663); assay: Radioligand binding assay for human B1 bradykinin receptor; details: [3H] des-arg10 kallidin, CHO membranes; read-out: binding Ki's to the hB1 receptor
T1 construct: expressed in transfected cells; host or cells: CHO-d-AQN cells (membranes)
T1 sequence (P46663 1-353): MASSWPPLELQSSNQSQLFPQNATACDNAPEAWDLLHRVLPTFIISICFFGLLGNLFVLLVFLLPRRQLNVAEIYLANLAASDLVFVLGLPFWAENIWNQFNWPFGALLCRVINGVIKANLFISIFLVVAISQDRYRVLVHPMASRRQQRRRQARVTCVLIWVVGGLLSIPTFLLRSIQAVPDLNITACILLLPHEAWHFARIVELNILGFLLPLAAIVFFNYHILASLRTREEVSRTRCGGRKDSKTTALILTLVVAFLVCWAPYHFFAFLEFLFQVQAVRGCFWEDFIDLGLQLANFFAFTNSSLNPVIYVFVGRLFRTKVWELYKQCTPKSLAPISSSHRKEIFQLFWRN

hB1 receptor = target: T2, hB1 receptor (Homo sapiens, UniProt P46663); assay: In vitro assay of human B1 receptor function using calcium flux (aequorin); type: cell-based; details: CHO D-/hB1/Aequorin cells, 20 nM des-Arg10-Kallidin; read-out: binding IC50's to hB1 receptor function
T2 construct: expressed in transfected cells
T2 sequence (P46663 1-353): T1 sequence (P46663 1-353)

Row | SMILES | Ki [1] [nM] | IC50 (hB1 receptor) [nM]
1 | CC(C)(C)NCc1cc2c(cc1Cl)[C@H](NC(=O)CC1C(=O)NCCN1S(=O)(=O)c1ccc(Cl)cc1)CCO2 (stereo partly shown) [Example 10, N-[7-(tert-Butylamino-methyl)-6-chloro-chroman-4-yl]-2-[3-oxo-1-(4-chloro-benzenesulfonyl)-piperazin-2-yl]-acetamide] | < 1000 | < 1000
2 | Cc1ccc(S(=O)(=O)N2CC(C)(C)NC(=O)C2CC(=O)NC2CCCc3cc(CNC(C)(C)C)ccc32)cc1 [Example 4b, N-((1R,S)-6-(((1,1-dimethylethyl)amino)methyl)-1,2,3,4-tetrahydro-1-naphthalenyl)-2-((2R,S)-5,5-dimethyl-1-((4-methylphenyl)sulfonyl)-3-oxo-2-piperazinyl)acetamide] | < 1000 | 
3 | Cc1cc(C)c(S(=O)(=O)N2CCNC(=O)C2CC(=O)NC2CCCc3ccccc32)c(C)c1 [Example 3c, 2-[3-Oxo-1-(2,4,6-trimethylbenzenesulfonyl)-piperizin-2(R,S)-yl]-N-(1,2,3,4-tetrahydronaphthalen-1-yl)-acetamide] | < 1000 | < 1000
4 | Cc1cc(C)c(S(=O)(=O)N2CC(C)(C)NC(=O)C2CC(=O)NC2CCCc3ccccc32)c(C)c1 [Example 3b, 2-((2R,S)-5,5-dimethyl-3-oxo-1-((2,4,6-trimethylphenyl)sulfonyl)-2-piperazinyl)-N-(1,2,3,4-tetrahydro-1-naphthalenyl)acetamide] | < 1000 | 
5 | COc1ccc(S(=O)(=O)N2CCNC(=O)C2CC(=O)N[C@@H]2CCOc3cc(CNC(C)(C)C)c(Cl)cc32)cc1 (stereo partly shown) [Example 9, N-[7-(tert-Butylamino-methyl)-6-chloro-chroman-4-yl]-2-[3-oxo-1-(4-methoxy-benzenesulfonyl)-piperazin-2-yl]-acetamide] | < 1000 | < 1000
6 | Cc1ccc(S(=O)(=O)N2CCNC(=O)C2CC(=O)N[C@@H]2CCOc3cc(CNC(C)(C)C)c(Cl)cc32)cc1 (stereo partly shown) [Example 7, N-[7-(tert-Butylamino-methyl)-6-chloro-chroman-4-yl]-2-[3-oxo-1-(toluene-4-sulfonyl)-piperazin-2-yl]-acetamide] | < 1000 | < 1000
7 | CC(C)(C)NCc1cc2c(cc1Cl)[C@H](NC(=O)CC1C(=O)NCCN1S(=O)(=O)c1cccc(C(F)(F)F)c1)CCO2 (stereo partly shown) [Example 11, N-[7-(tert-Butylamino-methyl)-6-chloro-chroman-4-yl]-2-[3-oxo-1-(3-trifluoromethyl-benzenesulfonyl)-piperazin-2-yl]-acetamide] | < 1000 | < 1000
8 | Cc1cc(C)c(S(=O)(=O)N2CC(C)(C)NC(=O)C2CC(=O)N[C@@H]2CCOc3cc(CNC(C)(C)C)c(Cl)cc32)c(C)c1 (stereo partly drawn) [Example 12, N-((4R)-6-Chloro-7-(((1,1-dimethylethyl)amino)methyl)-3,4-dihydro-2H-chromen-4-yl)-2-((2R,S)-5,5-dimethyl-3-oxo-1-((2,4,6-trimethylphenyl)sulfonyl)-2-piperazinyl)acetamide] | < 1000 | < 1000
9 | Cc1cc(C)c(S(=O)(=O)N2CC(C)(C)NC(=O)C2CC(=O)N[C@@H]2CCCc3cc(CNC(C)(C)C)ccc32)c(C)c1 (mixture of isomers) [Example 4, N-[6-(tert-Butylamino-methyl)-1,2,3,4-tetrahydro-naphthalen-1-yl]-2-[5,5-dimethyl-3-oxo-1-(2,4,6-trimethyl-benzenesulfonyl)-piperazin-2(R,S)-yl]-acetamide] | < 1000 | 
10 | Cc1ccc(S(=O)(=O)N2CCNC(=O)[C@H]2CC(=O)N[C@@H]2CC(C)(C)Oc3cc(C4CCCCN4)ccc32)cc1 (stereo partly drawn) [Example 14, N-((4R)-2,2-dimethyl-7-(2-piperidinyl)-3,4-dihydro-2H-chromen-4-yl)-2-((2R)-1-((4-methylphenyl)sulfonyl)-3-oxo-2-piperazinyl)acetamide] | < 1000 | 
